# Assay results taken from article PMC10815869.
# Substitutions are numbered along the chain they refer to. Construct, isoform or probe ends are uncertain for at least one entry. For part of these data: A weaker result is weaker than the reference pair of the same experiment. At least one verdict rests on a figure or table, not on a statement of the authors. Where a protein sequence is shown, tags need not be part of it.
# Assays:
# Experiment in all cases: size exclusion chromatography
# [1] = target: T1, mut3 NMAD-1A21-291 E109K,Q112K,Q114K (Caenorhabditis elegans) (UniProt Q8MNT9); details: 10 mM a-KG, 0.5 mM MnCl2, increased affinity vs WT, SEC: 25 mM HEPES pH 8.0, 100 mM NaCl, 5 mM beta-mercaptoethanol, recombinant protein, residues 21-291, protein details: N-terminal 6xHis with TEV site (kept)
# T1 sequence (looked up): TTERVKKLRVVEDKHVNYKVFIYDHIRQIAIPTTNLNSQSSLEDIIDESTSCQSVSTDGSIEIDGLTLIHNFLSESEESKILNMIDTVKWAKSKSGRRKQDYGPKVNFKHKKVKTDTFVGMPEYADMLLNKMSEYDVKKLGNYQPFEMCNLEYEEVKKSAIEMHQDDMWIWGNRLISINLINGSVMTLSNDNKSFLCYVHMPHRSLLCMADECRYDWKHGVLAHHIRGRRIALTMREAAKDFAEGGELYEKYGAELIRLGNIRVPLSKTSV
# [2] = target: T2, WT NMAD-1A1-291 (Caenorhabditis elegans) (UniProt Q8MNT9); details: comparison with mut3, DNA used for WT not stated explicitly; SEC: 25 mM HEPES pH 8.0, 100 mM NaCl, 5 mM beta-mercaptoethanol, 10 mM a-KG, 0.5 mM MnCl2; recombinant protein; residues 1-291; protein details: N-terminal 6xHis with TEV site (kept)
# T2 sequence (looked up): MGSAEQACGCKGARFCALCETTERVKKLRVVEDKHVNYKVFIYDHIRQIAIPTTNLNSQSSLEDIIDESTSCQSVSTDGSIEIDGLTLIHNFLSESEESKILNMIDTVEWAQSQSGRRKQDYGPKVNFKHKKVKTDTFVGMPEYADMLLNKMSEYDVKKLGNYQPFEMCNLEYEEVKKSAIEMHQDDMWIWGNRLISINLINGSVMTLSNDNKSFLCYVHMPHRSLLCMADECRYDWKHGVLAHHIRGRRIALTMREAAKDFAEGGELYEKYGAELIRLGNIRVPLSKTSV
# [3] = target: T3, mut3 NMAD-1A1-291 E109K,Q112K,Q114K (Caenorhabditis elegans) (UniProt Q8MNT9); details: 10 mM a-KG, 0.5 mM MnCl2, increased affinity vs WT, SEC: 25 mM HEPES pH 8.0, 100 mM NaCl, 5 mM beta-mercaptoethanol, recombinant protein, residues 1-291, protein details: 6xHis removed by TEV
# T3 sequence (looked up): T2 sequence (looked up) with E109K, Q112K, Q114K
sequence,measurement,setting,value
"GCAGCAACAGAAGAGGATCTCA / CTGAGATCCTCTTCTGTTGCTG [(G/C) 21 bp dsDNA, 5'-overhang]",binding result,[1],binds
same,binding result,[2],binds more weakly
same,binding result,[3],binds
